Article doi:10.1101/2020.05.04.064501
No constants are given. Whether binding was seen depends on the method and setting. Some binding calls cover weakened binding; strength is not graded here. Sequences can lack the tags named with a protein. One block for each binder: values may come before it.

Columns and labels:
[1] = molecular target: T1, ASY1^1-300-BD (ASY1 HORMA domain) (Arabidopsis thaliana) (UniProt F4HRV8); test: two-hybrid
T1 sequence: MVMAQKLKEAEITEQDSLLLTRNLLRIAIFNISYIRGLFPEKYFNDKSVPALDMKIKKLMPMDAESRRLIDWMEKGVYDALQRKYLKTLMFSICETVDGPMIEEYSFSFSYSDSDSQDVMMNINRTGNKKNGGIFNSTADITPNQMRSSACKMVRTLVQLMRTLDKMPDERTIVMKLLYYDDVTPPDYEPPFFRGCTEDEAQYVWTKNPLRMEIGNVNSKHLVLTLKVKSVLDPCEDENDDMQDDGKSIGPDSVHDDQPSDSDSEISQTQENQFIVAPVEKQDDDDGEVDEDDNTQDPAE

[2] = molecular target: T2, ASY1^1-300/Δ10-BD (Arabidopsis thaliana) (UniProt F4HRV8); test: two-hybrid
T2 sequence: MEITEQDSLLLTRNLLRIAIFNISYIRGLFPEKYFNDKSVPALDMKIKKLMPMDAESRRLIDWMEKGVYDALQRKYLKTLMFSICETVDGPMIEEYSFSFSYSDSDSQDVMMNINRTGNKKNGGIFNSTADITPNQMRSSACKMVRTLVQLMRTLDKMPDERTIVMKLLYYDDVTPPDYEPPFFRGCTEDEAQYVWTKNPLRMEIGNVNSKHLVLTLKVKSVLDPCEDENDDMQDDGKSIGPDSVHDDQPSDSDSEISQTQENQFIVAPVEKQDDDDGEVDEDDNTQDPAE

binding [1]: binds
B1: ASY3^1-200-AD (domain or fragment, UniProt Q0WR66 1-200)
chain: MSDYRSFGSNYHPSSQSRKISIGVMADSQPKRNLVPDKDDGDVIARVEKLKSATVTELQANKKEKSDLAAKQRNSAQVTGHVTSPWRSPRSSHRKLGTLESVLCKQTSSLSGSKGLNKGLNGAHQTPARESFQNCPISSPQHSLGELNGGRNDRVMDRSPERMEEPPSAVLQQKVASQREKMDKPGKETNGTTDVLRSKL

binding [1]: binds
B2: ASY3-FL-AD (protein, UniProt Q0WR66 1-793)
chain: MSDYRSFGSNYHPSSQSRKISIGVMADSQPKRNLVPDKDDGDVIARVEKLKSATVTELQANKKEKSDLAAKQRNSAQVTGHVTSPWRSPRSSHRKLGTLESVLCKQTSSLSGSKGLNKGLNGAHQTPARESFQNCPISSPQHSLGELNGGRNDRVMDRSPERMEEPPSAVLQQKVASQREKMDKPGKETNGTTDVLRSKLWEILGKASPANNEDVNSETPEVEKTNFKLSQDKGSNDDPLIKPRHNSDSIETDSESPENATRRPVTRSLLQRRVGAKGVQKKTKAGANLGRKCTEQVNSVFSFEEGLRGKIGTAVNSSVMPKKQRGRRKNTVVKCRKAHSRKKDEADWSRKEASKSNTPPRSESTETGKRSSSSDKKGSSHDLHPQSKARKQKPDISTREGDFHPSPEAEAAALPEMSQGLSKNGDKHERPSNIFREKSVEPENEFQSPTFGYKAPISSPSPCCSPEASPLQPRNISPTLDETETPIFSFGTKKTSQGTTGQASDTEKRLPDFLEKKRDYSFRRESSPEPNEDLVLSDPSSDERDSDGSREDSPVLGHNISPEERETANWTNERSMLGPSSVKRNSNLKGIGRVVLSPPSPLSKGIDKTDSFQHCSEMDEDEDEGLGRAVALFAMALQNFERKLKSAAEKKSSEIIASVSEEIHLELENIKSHIITEAGKTSNLAKTKRKHAETRLQEQEEKMRMIHEKFKDDVSHHLEDFKSTIEELEANQSELKGSIKKQRTSHQKLIAHFEGGIETKLDDATKRIDSVNKSARGKMLQLKMIVAECLRDD

binding [1]: binds | binding [2]: binds
Binder: DRRGRKTSMVREPILQYSKRQKSQAN (domain or fragment, UniProt F4HRV8 571-596) [ASY1^571-596-AD (closure motif of ASY1)]
